# Experimental data: paper PMC11102862
# Results are given in words; binding and its absence hold for the method and conditions named. Binding seen in cells or lysates may run through a third protein. Some results given as binding are weak or reduced against the parent protein; the word gives no strength. Where a sequence is shown, tags or fusion partners need not be part of it.
# B1: PRP6 (protein, UniProt O94906 1-941)
# chain: MNKKKKPFLGMPAPLGYVPGLGRGATGFTTRSDIGPARDANDPVDDRHAPPGKRTVGDQMKKNQAADDDDEDLNDTNYDEFNGYAGSLFSSGPYEKDDEEADAIYAALDKRMDERRKERREQREKEEIEKYRMERPKIQQQFSDLKRKLAEVTEEEWLSIPEVGDARNKRQRNPRYEKLTPVPDSFFAKHLQTGENHTSVDPRQTQFGGLNTPYPGGLNTPYPGGMTPGLMTPGTGELDMRKIGQARNTLMDMRLSQVSDSVSGQTVVDPKGYLTDLNSMIPTHGGDINDIKKARLLLKSVRETNPHHPPAWIASARLEEVTGKLQVARNLIMKGTEMCPKSEDVWLEAARLQPGDTAKAVVAQAVRHLPQSVRIYIRAAELETDIRAKKRVLRKALEHVPNSVRLWKAAVELEEPEDARIMLSRAVECCPTSVELWLALARLETYENARKVLNKARENIPTDRHIWITAAKLEEANGNTQMVEKIIDRAITSLRANGVEINREQWIQDAEECDRAGSVATCQAVMRAVIGIGIEEEDRKHTWMEDADSCVAHNALECARAIYAYALQVFPSKKSVWLRAAYFEKNHGTRESLEALLQRAVAHCPKAEVLWLMGAKSKWLAGDVPAARSILALAFQANPNSEEIWLAAVKLESENDEYERARRLLAKARSSAPTARVFMKSVKLEWVQDNIRAAQDLCEEALRHYEDFPKLWMMKGQIEEQKEMMEKAREAYNQGLKKCPHSTPLWLLLSRLEEKIGQLTRARAILEKSRLKNPKNPGLWLESVRLEYRAGLKNIANTLMAKALQECPNSGILWSEAIFLEARPQRRTKSVDALKKCEHDPHVLLAVAKLFWSQRKITKAREWFHRTVKIDSDLGDAWAFFYKFELQHGTEEQQEEVRKRCESAEPRHGELWCAVSKDIANWQKKIGDILRLVAGRIKNTF
# B2: 3xHA_PRP6^270-941 (domain or fragment, UniProt O94906 270-941)
# chain: PKGYLTDLNSMIPTHGGDINDIKKARLLLKSVRETNPHHPPAWIASARLEEVTGKLQVARNLIMKGTEMCPKSEDVWLEAARLQPGDTAKAVVAQAVRHLPQSVRIYIRAAELETDIRAKKRVLRKALEHVPNSVRLWKAAVELEEPEDARIMLSRAVECCPTSVELWLALARLETYENARKVLNKARENIPTDRHIWITAAKLEEANGNTQMVEKIIDRAITSLRANGVEINREQWIQDAEECDRAGSVATCQAVMRAVIGIGIEEEDRKHTWMEDADSCVAHNALECARAIYAYALQVFPSKKSVWLRAAYFEKNHGTRESLEALLQRAVAHCPKAEVLWLMGAKSKWLAGDVPAARSILALAFQANPNSEEIWLAAVKLESENDEYERARRLLAKARSSAPTARVFMKSVKLEWVQDNIRAAQDLCEEALRHYEDFPKLWMMKGQIEEQKEMMEKAREAYNQGLKKCPHSTPLWLLLSRLEEKIGQLTRARAILEKSRLKNPKNPGLWLESVRLEYRAGLKNIANTLMAKALQECPNSGILWSEAIFLEARPQRRTKSVDALKKCEHDPHVLLAVAKLFWSQRKITKAREWFHRTVKIDSDLGDAWAFFYKFELQHGTEEQQEEVRKRCESAEPRHGELWCAVSKDIANWQKKIGDILRLVAGRIKNTF
# Columns and labels:
# [1] = molecular target: T1, 3xFLAG_TEV_SBP-tagged CD2BP2 (human) (UniProt O95400); test: cross-linking; BS3 XL-MS of the purified CD2BP2 complex at 3 mg/ml, 0.25 mM or 1 mM BS3, 30 min at 30 °C; complex co-purified from nuclear extract
# T1 sequence: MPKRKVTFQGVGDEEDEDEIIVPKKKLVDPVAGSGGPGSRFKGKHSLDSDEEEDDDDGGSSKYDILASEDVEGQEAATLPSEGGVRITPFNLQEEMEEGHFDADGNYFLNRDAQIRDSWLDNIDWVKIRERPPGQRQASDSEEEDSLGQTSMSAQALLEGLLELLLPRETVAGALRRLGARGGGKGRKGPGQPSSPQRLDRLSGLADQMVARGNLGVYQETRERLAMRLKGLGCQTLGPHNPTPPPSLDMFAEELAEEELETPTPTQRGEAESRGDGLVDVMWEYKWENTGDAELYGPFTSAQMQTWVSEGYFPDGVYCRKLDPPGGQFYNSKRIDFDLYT
# 3xFLAG_CD2BP2 (human) = molecular target: T2, 3xFLAG_CD2BP2 (human) (UniProt O95400); test: co-IP; called a FLAG-tag pull-down: HEK293T co-expressing 3xFLAG-CD2BP2 and 3xHA-PRP6 270-941; lysate in 150 mM KCl, 20 mM K-HEPES pH 7.8, 0.1% Triton X-100; FLAG-agarose captures the bait; western blot anti-HA and anti-FLAG; single biological replicate
# T2 sequence: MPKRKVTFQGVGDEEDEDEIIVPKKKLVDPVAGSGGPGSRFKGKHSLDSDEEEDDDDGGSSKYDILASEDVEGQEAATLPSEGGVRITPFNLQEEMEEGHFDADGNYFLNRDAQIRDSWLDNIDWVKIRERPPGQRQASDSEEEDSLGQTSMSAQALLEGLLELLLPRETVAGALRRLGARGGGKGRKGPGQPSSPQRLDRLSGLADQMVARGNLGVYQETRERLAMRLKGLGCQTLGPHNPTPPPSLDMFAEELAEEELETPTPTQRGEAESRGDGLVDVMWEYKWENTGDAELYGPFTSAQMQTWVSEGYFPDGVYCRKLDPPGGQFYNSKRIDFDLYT
Binder,binding [1],binding (3xFLAG_CD2BP2 (human))
B1,binds,
B2,,binds
